PubChem BioAssay AID743121 – NCATS | 2013
Here is one part, drawn at random, of about 26,000 reagents. 167 of them (0.63%) were called active. 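Calls are per gene from RSA p-values that are not deposited; an individual active-marked siRNA can sensitise only weakly.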 Unmarked entries are inactive. Further read-outs or replicates are left out here.

Purpose: 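Knock-downs that sensitise breast cancer cells to camptothecin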 (primary screen)
System: MDA-MB-231 cells, a human breast cancer line
Reagents: single siRNA against human genes, 20 nM siRNA (0.8 pmol per well)
Duration: 120 h (drug added 48 h after transfection, read 72 h later)
Treatment: camptothecin 20 nM (about EC30) for 72 h; vehicle 0.1% DMSO in parallel plates
Measurement: 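Cell viability by ATP luminescence (CellTiter-Glo) as % of non-targeting siRNA wells, and the log2 ratio of viability without drug over viability with camptothecin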
Direction: log2 vehicle/camptothecin viability: higher = stronger sensitisation to camptothecin
Rule for the call: 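Each gene scored by redundant siRNA activity (RSA) over its individual siRNA ratios; a gene is called active at p < 0.001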

log2 vehicle/camptothecin viability, by gene and reagent
STAG1: SID164409976 -0.0408; SID164409977 -0.262; SID164409978 -0.0454; SID164409980 0.27
IER3: SID164400396 -0.303; SID164400397 -0.13; SID164400398 -0.178; SID164400399 -0.398
TNFRSF13B: SID164448326 -0.411; SID164448327 -0.11; SID164448328 -0.232; SID164448329 -0.159
ACE2: SID164498330 -0.063; SID164498333 -0.00817; SID164498334 -0.216; SID164498335 -0.615
VEGFB: SID164393794 -0.239; SID164393795 -0.0243; SID164393796 -0.0194; SID164393798 -0.442
TYSND1: SID164591676 -0.389; SID164591677 -0.294; SID164591679 -0.204; SID164591681 -0.206
PRPS2: SID164382993 0.156; SID164382994 -0.204; SID164382995 -0.295; SID164382996 0.171
